Experimental data: article PMC9977449, “Discovery of lipid-mediated protein–protein interactions in living cells using metabolic labeling with photoactivatable clickable probes†” (Chemical Science, 2023)
Results are given in words; binding and its absence hold for the method and conditions named. In cells and extracts the contact can be indirect. Some results given as binding are weak or reduced against the parent protein; the word gives no strength.

Molecular target: T1, DDX46-TST, myristoylation-deficient G2A mutant (UniProt Q7L014)
T1 sequence: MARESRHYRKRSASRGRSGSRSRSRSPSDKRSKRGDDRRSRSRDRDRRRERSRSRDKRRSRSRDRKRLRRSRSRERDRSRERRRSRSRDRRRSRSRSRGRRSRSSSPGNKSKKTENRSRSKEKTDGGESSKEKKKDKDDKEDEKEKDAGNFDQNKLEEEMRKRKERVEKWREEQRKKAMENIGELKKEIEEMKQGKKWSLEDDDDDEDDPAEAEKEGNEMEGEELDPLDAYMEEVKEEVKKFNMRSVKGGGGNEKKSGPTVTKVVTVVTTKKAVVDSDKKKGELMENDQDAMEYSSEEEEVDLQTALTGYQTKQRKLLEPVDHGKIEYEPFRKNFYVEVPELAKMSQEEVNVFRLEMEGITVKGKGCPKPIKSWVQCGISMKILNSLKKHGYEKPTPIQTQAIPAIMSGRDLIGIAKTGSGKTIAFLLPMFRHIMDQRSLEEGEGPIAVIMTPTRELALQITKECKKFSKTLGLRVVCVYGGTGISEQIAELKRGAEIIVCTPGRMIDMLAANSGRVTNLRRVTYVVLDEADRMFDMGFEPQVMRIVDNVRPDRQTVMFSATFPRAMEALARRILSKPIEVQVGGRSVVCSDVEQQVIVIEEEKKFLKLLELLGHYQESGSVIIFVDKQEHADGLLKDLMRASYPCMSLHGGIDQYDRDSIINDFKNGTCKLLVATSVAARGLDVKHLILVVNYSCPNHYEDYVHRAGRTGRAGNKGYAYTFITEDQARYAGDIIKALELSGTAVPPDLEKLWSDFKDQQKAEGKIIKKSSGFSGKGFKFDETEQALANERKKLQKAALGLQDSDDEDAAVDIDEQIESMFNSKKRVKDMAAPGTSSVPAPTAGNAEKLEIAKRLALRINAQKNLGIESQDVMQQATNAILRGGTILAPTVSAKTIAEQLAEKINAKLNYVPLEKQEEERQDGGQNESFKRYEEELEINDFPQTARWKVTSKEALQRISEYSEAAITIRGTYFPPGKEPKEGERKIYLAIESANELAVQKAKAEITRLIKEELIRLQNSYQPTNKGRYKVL
Assay: co-IP; TST-tagged protein (WT or G2A) transfected in HEK293 cells, captured on Strep-Tactin resin; blot with TRA2B or TOMM40 antibody, signal normalised to the bait's signal

B1: TRA2B, RNA-binding protein involved in control of pre-mRNA splicing (protein, UniProt P62995 1-288)
chain: MSDSGEQNYGERESRSASRSGSAHGSGKSARHTPARSRSKEDSRRSRSKSRSRSESRSRSRRSSRRHYTRSRSRSRSHRRSRSRSYSRDYRRRHSHSHSPMSTRRRHVGNRANPDPNCCLGVFGLSLYTTERDLREVFSKYGPIADVSIVYDQQSRRSRGFAFVYFENVDDAKEAKERANGMELDGRRIRVDFSITKRPHTPTPGIYMGRPTYGSSRRRDYYDRGYDRGYDDRDYYSRSYRGGGGGGGGWRAAQDRDQIYRRRSPSPYYSRGGYRSRSRSRSYSPRRY
- binding: binds
